In PubChem BioAssay AID504444 (National Center for Advancing Translational Sciences (NCATS), 2011):
The whole screen tested about 360,000 compounds, of which about 7,500 (2.1%) were called active. Inconclusive means that the source gave no clear call. Such entries were picked first, then a sample of the others. Calls follow the shape of the dose curve; as a rule, active = well fitted inhibition curve with a large enough effect; inconclusive = small, poorly fitted or top-dose-only effect, or effect the other way; inactive = flat fitted curve, though single readings scatter. A potency beside an inconclusive call is a rough fit, not a confirmed value.

Experiment: Nrf2 qHTS screen for inhibitors; also: nearly all actives have a fitted effect of over 60% in size
Conditions: A549 ARE-Fluc reporter, luciferase luminescence, 18-24 h; activity change, negative = inhibition: at 46 µM (top of the series)
How it was run: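 A549 ARE_Fluc cells (5000/well, 5% FBS OPTI-MEM) pre-incubated 2 h, then treated with compounds 18-24 h at 37C/5% CO2 in concentration-response. CellTiter-Fluor viability read first; BugLite luciferase luminescence after 15 min at room temperature gives Nrf2 activity.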
% is scaled to controls: 0 for no effect and ±100 for the full control effect; potency is read from the fitted curve at half-maximal effect.

For CC(=O)OC1C2(CC3N4C(=O)C5(CO)SSC4(CC31O)C(=O)N5C)OC(C)C(C)(C)C2=O (stereo not drawn), which Potency is on record?
The Potency was inconclusive: 7.31 µM [falling, partial curve, poor fit].

For CC(=O)c1cn(Cc2ccccc2C#N)c2ccccc12, which Potency is on record?
The Potency was active: 1.03 µM.

Which Potency does the source give for CCC(=NCc1cc(OC)cc(OC)c1)c1c(O)n(C)c(=O)n(C)c1=O here?
Its Potency is active: 23.1 µM.

With COC(=O)C1=C(c2cc3ccccc3s2)C[C@@H]2CC[C@H]1N2C(=O)NCc1ccc(C(F)(F)F)cc1 as the molecule, how does the Potency read?
The Potency was inconclusive: 20.6 µM [falling, single point].

Which Potency does the source give for COc1ccc(NC(=O)Nc2cccc3cccnc23)cc1 here?
Its Potency is inconclusive: 1.84 µM [activator, full curve].

Which “activity change, negative = inhibition” value does the source give for NC(=O)c1cc([N+](=O)[O-])cc([N+](=O)[O-])c1 here?
The value was inactive: -18.4%.

For CNCC(O)c1cc(OCc2ccccc2)c(OCc2ccccc2)cc1F (stereo not drawn), which Potency is on record?
Its Potency is inconclusive: 20.6 µM [activator, single point].

Which Potency does the source give for CN(CCc1ccccn1)Cc1ccc(Cl)cc1 here?
The Potency was inconclusive: 2.06 µM [activator, partial curve, poor fit].

Which Potency does the source give for O=P(O)(Oc1ccccc1)OC(c1ccccc1)C(F)(F)F (stereo not drawn) here?
Its Potency is inconclusive: 6.51 µM [activator, single point].

Which Potency does the source give for O=C(Nc1sc2c(c1C(=O)Nc1ccc(Cl)cc1)CCCC2)c1cccs1 here?
Its Potency is inconclusive: 6.51 µM [falling, single point].

With Fc1ccc(N2CCN(c3ncnc4c3nc3n4CCCCC3)CC2)cc1 as the molecule, how does the Potency read?
The Potency was active: 8.2 µM.

With COC(=O)C1=C(c2ccc(OC(F)(F)F)cc2)C[C@@H]2CC[C@H]1N2C(=O)NC1CCCCC1 as the molecule, how does the Potency read?
The Potency was inconclusive: 14.6 µM [falling, single point].

Which “activity change, negative = inhibition” value does the source give for Cc1ccccc1N1C(=O)NC(=O)/C(=C/c2ccc(N3CCOCC3)o2)C1=O here?
The value was inactive: 1.14%.

With O=[N+]([O-])c1ccc(C(c2ccc([N+](=O)[O-])cc2)c2ccc([N+](=O)[O-])cc2)cc1 as the molecule, how does the Potency read?
Its Potency is active: 23.1 µM.

Which “activity change, negative = inhibition” value does the source give for CC12CCC3C(CCCC4CC(=O)CCC43C)C1CCC2O (stereo not drawn) here?
The value was inactive: 7.19%.

For COc1nc2ccccc2c(=O)n1-c1ccc(C)cc1, which Potency is on record?
The Potency was inconclusive: 20.6 µM [activator, partial curve, poor fit].

With COc1ccc(-n2c(/C=C/c3ccc(O)cc3)nc3ccccc3c2=O)cc1 as the molecule, how does the Potency read?
The Potency was inconclusive: 29.1 µM [falling, single point].

For O=C(Cc1n[nH]c(=O)c2ccccc12)OCc1c(Cl)cccc1Cl, which Potency is on record?
The Potency was inconclusive: 2.59 µM [activator, full curve].

For O=c1[nH]c(=O)n(Cc2ccco2)c(O)c1C=NC1CC1, which “activity change, negative = inhibition” value is on record?
The value was inactive: 1.92%.

Which Potency does the source give for CCCCN1CC(O)=C(c2nc3ccccc3s2)C1=N here?
Its Potency is inconclusive: 3.26 µM [activator, partial curve].

Which “activity change, negative = inhibition” value does the source give for CC1=CC(=O)OC2CC3OC4C[C@@H](C)C5OC6CC7O[C@]8(C)C/C=C\C9OC%10CC%11OC(CC(C)CO)CC(O)[C@]%11(C)OC%10CC9OC8C[C@]7(C)O[C@]6(C)CCC5OC4C[C@]3(C)OC12 (stereo partly drawn) here?
The value was inactive: 15.9%.

For CC(=NCCc1c[nH]c2ccccc12)c1c(O)n(Cc2ccccc2)c(=O)[nH]c1=O, which Potency is on record?
The Potency was inconclusive: 18.4 µM [falling, single point].

With Cc1ccc(N)c(N)c1 as the molecule, how does the Potency read?
The Potency was inconclusive: 8.2 µM [activator, partial curve].

For CSc1ccccc1NC(=O)CN(C)CC(=O)c1[nH]c(C)c(C(C)=O)c1C, which Potency is on record?
Its Potency is inconclusive: 29.1 µM [falling, single point].

For Clc1cccc(N2CCNCC2)n1, which Potency is on record?
The Potency was inconclusive: 18.4 µM [activator, partial curve, poor fit].

With COc1cc([C@@H]2c3cc4c(cc3C[C@H]3COC(=O)[C@@H]32)OCO4)cc(OC)c1O as the molecule, how does the Potency read?
The Potency was inconclusive: 9.2 µM [activator, partial curve].

With CN(C)CCN(C(=O)c1cc(Cl)sc1Cl)c1nc2ccc(F)cc2s1 as the molecule, how does the Potency read?
The Potency was inconclusive: 13 µM [activator, partial curve, poor fit].

Which Potency does the source give for CCOP(=O)(OCC)c1nc(-c2cccc3ccccc23)oc1NCc1ccccc1 here?
Its Potency is inconclusive: 29.1 µM [falling, single point].

With NS(=O)(=O)c1ccc(CCNC(=O)c2ccc(Cl)c(S(=O)(=O)N3CCCCCC3)c2)cc1 as the molecule, how does the Potency read?
The Potency was active: 10.3 µM.

With O=P1(c2ccccc2)Nc2ccccc2N1c1ccccc1 (stereo not drawn) as the molecule, how does the Potency read?
The Potency was inconclusive: 13 µM [falling, partial curve, poor fit].

Which Potency does the source give for O=P(NCc1ccccc1)(Oc1ccccc1)Oc1ccccc1 here?
The Potency was inconclusive: 29.1 µM [falling, single point].

With COCCCNC(=O)CC1C[C@H](C(=O)N2CCCCC2)[C@@]2(CCc3ccccc3)c3[nH]c4ccccc4c3CCN2C1=O (stereo partly drawn) as the molecule, how does the Potency read?
The Potency was inconclusive: 16.4 µM [falling, partial curve, poor fit].

With COc1cc2c(c(OC)c1OC)-c1ccc(O)cc1[C@@H](NC(C)=O)CC2 as the molecule, how does the Potency read?
The Potency was inconclusive: 5.17 µM [activator, partial curve, poor fit].

With Nc1c(C(=O)Nc2ccc(OC(F)(F)F)cc2)sc2nc3c(cc12)N1CCC3CC1 as the molecule, how does the Potency read?
The Potency was active: 6.51 µM.

For C[C@]12CCC3C(CC[C@H]4C[C@@H](O)CC[C@]34C)C1CC[C@@H]2OC(=O)[C@H](N)CCCCN (stereo partly drawn), which “activity change, negative = inhibition” value is on record?
The value was inactive: 0.737%.

For CCCCCn1c(=O)c(C(=O)NCc2ccc(Cl)cc2)c(O)c2ccccc21, which Potency is on record?
Its Potency is inconclusive: 29.1 µM [falling, partial curve, poor fit].

For Cc1ccc(Oc2cc(NN3CCCCC3)c([N+](=O)[O-])cc2[N+](=O)[O-])c([N+](=O)[O-])c1, which Potency is on record?
Its Potency is inconclusive: 0.92 µM [falling, full curve, poor fit].

Which Potency does the source give for O=[N+]([O-])c1ccc(N2CCCC(C(F)(F)F)C2)c2ccncc12 (stereo not drawn) here?
The Potency was inconclusive: 29.1 µM [falling, single point].

Which “activity change, negative = inhibition” value does the source give for CN1C(=O)NC(=O)/C(=C/c2ccc(C(=O)O)cc2)C1=O here?
The value was inactive: -15.3%.

Which Potency does the source give for COc1ccc(-c2cc3nc(C)c(CCC(=O)N4CCN(c5cc(C)ccc5C)CC4)c(C)n3n2)c(OC)c1 here?
The Potency was inconclusive: 6.51 µM [falling, single point].

For C=CC[C@@H](CC/C=C/C=C/CC/C=C\[C@@H]1CSC([C@@H]2C[C@@H]2C)=N1)OC, which Potency is on record?
The Potency was inconclusive: 1.16 µM [activator, partial curve].

With CCC(=Nc1ccc(OC)cc1OC)c1c(O)n(C2CCCCC2)c(=O)[nH]c1=O as the molecule, how does the Potency read?
Its Potency is inconclusive: 16.4 µM [falling, single point].

With O=c1c2ccccc2nc(-c2ccco2)n1-c1nccs1 as the molecule, how does the Potency read?
Its Potency is inconclusive: 23.1 µM [falling, single point].

For N#Cc1ccccc1Cn1cc(C(=O)c2ccco2)c2ccccc21, which Potency is on record?
The Potency was inconclusive: 0.116 µM [falling, full curve, poor fit].

For CC(C)OC12Oc3ccccc3C=C1N1CCC2CC1 (stereo not drawn), which Potency is on record?
Its Potency is inconclusive: 9.2 µM [activator, partial curve, poor fit].

For Cc1ccc(N=C2N=C(N)c3ccccc32)c(C)c1, which Potency is on record?
The Potency was inconclusive: 18.4 µM [falling, single point].

With CNc1cc(Cl)c2nonc2c1[N+](=O)[O-] as the molecule, how does the Potency read?
Its Potency is inconclusive: 29.1 µM [falling, single point].

With CCCCc1nc2ccccc2c(=O)n1-c1cccc(OC)c1 as the molecule, how does the “activity change, negative = inhibition” value read?
The value was inactive: -25.8%.

Which “activity change, negative = inhibition” value does the source give for C[C@]1(O)CCC2C3CC[C@@H]4CC(=O)CC[C@]4(C)C3CC[C@@]21C (stereo partly drawn) here?
Its value is inactive: 9.67%.

With CCOc1ccc(NC(=O)c2ccc(NC(=O)COC(=O)Cc3ccccc3)cc2)cc1 as the molecule, how does the Potency read?
The Potency was inconclusive: 18.4 µM [activator, partial curve].

For CCOc1ccc(NCc2cccn2-c2nnc(N3CCC(C(=O)NCc4ccc(C)cc4)CC3)s2)cc1, which Potency is on record?
Its Potency is inconclusive: 25.9 µM [falling, partial curve, poor fit].

For CC(C)CN(CC(C)C)c1ccc(C=C2C(=O)NC(=S)NC2=O)cc1[N+](=O)[O-], which Potency is on record?
Its Potency is inconclusive: 6.51 µM [activator, single point].

With CC/C(=N\NC(=S)Nc1ccccc1)c1c(O)[nH]c(=O)[nH]c1=O as the molecule, how does the Potency read?
Its Potency is inconclusive: 18.4 µM [activator, partial curve, poor fit].

Which Potency does the source give for Cc1ccc(C(=O)COC(=O)c2cccc(NC(=O)c3ccc(Br)cc3)c2)cc1 here?
The Potency was inconclusive: 2.91 µM [activator, partial curve].

With O=C(c1ccccc1)C1NC1c1ccccc1 (stereo not drawn) as the molecule, how does the Potency read?
Its Potency is inconclusive: 25.9 µM [activator, partial curve, poor fit].

With Cc1ccc(N(C)C(=O)Oc2cccc3cccnc23)cc1 as the molecule, how does the Potency read?
Its Potency is inconclusive: 3.16 µM [falling, partial curve, poor fit].

With Cc1nc2c(-c3ccccc3)c(C)nn2c(C)c1CCC(=O)N1CCC2(CC1)OCCO2 as the molecule, how does the Potency read?
The Potency was inconclusive: 29.1 µM [falling, partial curve, poor fit].

For Cn1c(O)c(C(=Nc2ccccc2)SCc2ccccc2Cl)c(=O)n(C)c1=O, which Potency is on record?
Its Potency is inconclusive: 29.1 µM [falling, single point].

For COc1cc(CC(C)N)c(OC)cc1I (stereo not drawn), which “activity change, negative = inhibition” value is on record?
The value was inactive: -10.6%.

For Cc1ccc(C(=O)Nc2ccc(Cl)cc2C(=O)c2ccccc2)cc1, which Potency is on record?
Its Potency is inconclusive: 14.6 µM [falling, single point].

For O=C1/C(=C\c2ccc3c(c2)OCO3)N2CCC1CC2, which Potency is on record?
The Potency was inconclusive: 16.4 µM [activator, partial curve, poor fit].

Which Potency does the source give for Cc1cc2c(cc1C)NP(=S)(c1ccccc1)N2 here?
Its Potency is inconclusive: 23.1 µM [activator, partial curve].

Which Potency does the source give for COC(=O)C1=C(c2cc3ccccc3s2)C[C@@H]2CC[C@H]1N2C(=O)NCc1ccc(F)cc1 here?
The Potency was inconclusive: 13 µM [falling, partial curve].
